Patent US4355101A, “Phenylmercaptoazole compounds” (Polaroid Corporation, priority 1981, dated 1982)

Test: Diffusion transfer film unit with top coat layer of blocked compound: Dmax and Dmin (red, green, blue)

In the case of `CC(=O)CCSc1nnnn1-c1ccc(O)cc1` [Compound III], the “Dmax B” value (24° C.) is reported as 1.91, the “Dmax G” value (24° C.) is reported as 1.74 and the “Dmax R” value (24° C.) is reported as 1.68. The “Dmin B” value (24° C.) was 0.26, the “Dmin G” value (24° C.) was 0.17 and the “Dmin R” value (24° C.) was 0.16. For the same molecule, the “Dmax B” value (35° C.) was 1.62, the “Dmax G” value (35° C.) was 1.67 and the “Dmax R” value (35° C.) was 1.65. For the same molecule, the “Dmin B” value (35° C.) was 0.26, the “Dmin G” value (35° C.) was 0.17 and the “Dmin R” value (35° C.) was 0.16.
With `CS(=O)(=O)CCSc1nnnn1-c1ccc(S(N)(=O)=O)cc1` [Compound II] the “Dmax B” value (24° C.) was 1.41, the “Dmax G” value (24° C.) was 1.43 and the “Dmax R” value (24° C.) was 1.33. The “Dmin B” value (24° C.) was 0.23, the “Dmin G” value (24° C.) was 0.16 and the “Dmin R” value (24° C.) was 0.15. The “Dmax B” value (35° C.) was 1.11, the “Dmax G” value (35° C.) was 1.13 and the “Dmax R” value (35° C.) was 1.07. The “Dmin B” value (35° C.) was 0.25, the “Dmin G” value (35° C.) was 0.17 and the “Dmin R” value (35° C.) was 0.16.
In the case of `CC(=O)CCSc1nnnn1-c1ccc(S(N)(=O)=O)cc1` [Compound IV], the “Dmax B” value (24° C.) is reported as 1.37, the “Dmax G” value (24° C.) is reported as 1.39 and the “Dmax R” value (24° C.) is reported as 1.44. For the same molecule, the “Dmin B” value (24° C.) was 0.16, the “Dmin G” value (24° C.) was 0.13 and the “Dmin R” value (24° C.) was 0.16. The “Dmax B” value (35° C.) was 1.14, the “Dmax G” value (35° C.) was 1.24 and the “Dmax R” value (35° C.) was 1.28. For the same molecule, the “Dmin B” value (35° C.) was 0.17, the “Dmin G” value (35° C.) was 0.14 and the “Dmin R” value (35° C.) was 0.16.
With `CS(=O)(=O)CCSc1nnnn1-c1ccc(O)cc1` [Compound I] the “Dmax B” value (24° C.) was 1.40, the “Dmax G” value (24° C.) was 1.48 and the “Dmax R” value (24° C.) was 1.60. The “Dmin B” value (24° C.) was 0.24, the “Dmin G” value (24° C.) was 0.17 and the “Dmin R” value (24° C.) was 0.18. For the same molecule, the “Dmax B” value (35° C.) was 1.12, the “Dmax G” value (35° C.) was 1.23 and the “Dmax R” value (35° C.) was 1.32. The “Dmin B” value (35° C.) was 0.24, the “Dmin G” value (35° C.) was 0.17 and the “Dmin R” value (35° C.) was 0.16.
In the case of `CC(=O)Oc1ccc(CSc2nnnn2-c2ccc(O)cc2)cc1` [Compound VII], the “Dmax B” value (24° C.) is reported as 1.88, the “Dmax G” value (24° C.) is reported as 1.83 and the “Dmax R” value (24° C.) is reported as 1.48. For the same molecule, the “Dmin B” value (24° C.) was 0.23, the “Dmin G” value (24° C.) was 0.15 and the “Dmin R” value (24° C.) was 0.14. The “Dmax B” value (35° C.) was 1.61, the “Dmax G” value (35° C.) was 1.78 and the “Dmax R” value (35° C.) was 1.67. The “Dmin B” value (35° C.) was 0.25, the “Dmin G” value (35° C.) was 0.15 and the “Dmin R” value (35° C.) was 0.14.
With `CC(=NO)c1ccc(-n2nnnc2SCCC#N)cc1` [Compound VI] the “Dmax B” value (24° C.) was 1.64, the “Dmax G” value (24° C.) was 1.65 and the “Dmax R” value (24° C.) was 1.58. For the same molecule, the “Dmin B” value (24° C.) was 0.15, the “Dmin G” value (24° C.) was 0.13 and the “Dmin R” value (24° C.) was 0.16. For the same molecule, the “Dmax B” value (35° C.) was 1.34, the “Dmax G” value (35° C.) was 1.35 and the “Dmax R” value (35° C.) was 1.40. For the same molecule, the “Dmin B” value (35° C.) was 0.17, the “Dmin G” value (35° C.) was 0.14 and the “Dmin R” value (35° C.) was 0.16.
In the case of `N#CCCSc1nnnn1-c1ccc(O)cc1` [Compound V], the “Dmax B” value (24° C.) is reported as 1.46, the “Dmax G” value (24° C.) is reported as 1.42 and the “Dmax R” value (24° C.) is reported as 1.30. The “Dmin B” value (24° C.) was 0.15, the “Dmin G” value (24° C.) was 0.13 and the “Dmin R” value (24° C.) was 0.15. For the same molecule, the “Dmax B” value (35° C.) was 1.24, the “Dmax G” value (35° C.) was 1.27 and the “Dmax R” value (35° C.) was 1.24. The “Dmin B” value (35° C.) was 0.17, the “Dmin G” value (35° C.) was 0.14 and the “Dmin R” value (35° C.) was 0.17.
